# Results deposited as PubChem BioAssay AID1259308 (NCATS, 2017)
# Aim: 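Candidate targets for better recombinant protein yield in mammalian cells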 (primary screen)
# Cell system: human HEK293 embryonic kidney cells stably expressing firefly luciferase (HEK-CMV-Luc2-Hygro)
# Reagent: single siRNA against human genes, 0.8 pmol siRNA per well
# Duration: 72 h
# Detection: 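Reporter luminescence and viable-cell signal on separate replicate plates, given as percent of non-targeting control and median/MAD z-scores, plus per-cell luciferase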
# Scale: total luciferase, z-score and total luciferase, % of control: higher = more reporter protein produced; luciferase per cell, z-score: higher = more reporter output per viable cell; viable cells, % of control: higher = more viable cells
# Active means: 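Active when the median/MAD z-score for overall luciferase is greater than 3; a gene was taken forward for validation with new siRNAs if at least two of its three siRNAs passed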
# Calls: active = raised luciferase; inactive = no rise
# The whole screen tested about 59,000 reagents; shown is a random part of them. In the full data, about 1,510 (2.6%) are marked active. 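Calls use total luciferase alone and ignore viability, so some active siRNAs may act by altering cell number.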 Reagents against one gene are numbered here.
gene knocked down,reagent,"total luciferase, z-score","total luciferase, % of control","luciferase per cell, z-score","viable cells, % of control",Call
PTER,1,-0.984,62.3,-1.35,99.4,inactive
PTER,2,0.0572,83,-0.0432,93.8,inactive
PTER,3,0.0836,83.5,-0.0839,95.4,inactive
PHF20L1,1,1.43,110,1.35,86.5,inactive
PHF20L1,2,0.883,99.4,1.46,75.7,inactive
PHF20L1,3,0.604,93.9,0.123,102,inactive
SYT12,1,1.5,112,1.39,86.6,inactive
SYT12,2,-0.453,72.9,0.368,73.9,inactive
SYT12,3,0.576,93.3,1.23,75.5,inactive
PCP4L1,1,-0.125,79.4,-0.0387,89.6,inactive
PCP4L1,2,0.723,96.3,0.152,103,inactive
PCP4L1,3,0.726,96.3,1.22,78,inactive
KALRN,1,0.441,90.7,0.298,93.7,inactive
KALRN,2,-0.693,68.1,-0.897,96.4,inactive
KALRN,3,-0.566,70.6,-0.804,97.5,inactive
DCAF4,1,0.189,85.7,0.405,86,inactive
DCAF4,2,0.276,87.4,0.364,88.7,inactive
DCAF4,3,-0.898,64,-0.486,81.3,inactive
H1-9P,1,0.319,88.2,0.309,90.9,inactive
H1-9P,2,2.13,124,1.77,87.1,inactive
H1-9P,3,-0.116,79.6,-0.0729,90.7,inactive
OR3A4P,1,2.65,135,1.92,90.7,inactive
OR3A4P,2,1.71,116,0.78,106,inactive
OR3A4P,3,-1.03,61.4,-1.18,93.7,inactive
TULP3,1,1.86,119,2.05,77.4,inactive
TULP3,2,0.379,89.4,0.15,96.1,inactive
TULP3,3,-2.18,38.5,-2.55,84.1,inactive
ASB16-AS1,1,-1.45,53,-0.449,66.7,inactive
ASB16-AS1,2,0.067,83.2,1.26,66.8,inactive
ASB16-AS1,3,0.699,95.8,1.37,74.7,inactive
AMY1A,1,0.315,88.1,1.21,71.7,inactive
AMY1A,2,0.0361,82.6,-0.645,109,inactive
AMY1A,3,-0.0496,80.9,-0.361,99.4,inactive
RLN3,1,0.49,91.6,-0.416,114,inactive
RLN3,2,0.0515,82.9,-0.109,95.3,inactive
RLN3,3,3.38,149,1.63,109,active
GTF2F2P2,1,-1.98,42.4,0.126,45.9,inactive
GTF2F2P2,2,-0.789,66.2,-0.0181,74.3,inactive
GTF2F2P2,3,-0.409,73.7,0.133,79.6,inactive
RABL6,1,-1.8,46.1,-0.889,65.1,inactive
RABL6,2,1.07,103,1,88.5,inactive
RABL6,3,-0.301,75.9,0.854,67.7,inactive
GCNT1,1,0.158,85,1.59,62.5,inactive
GCNT1,2,2.96,141,2.61,79.1,inactive
GCNT1,3,0.376,89.4,1.06,75.5,inactive
HOXA4,1,3.12,144,1.68,103,active
HOXA4,2,0.454,90.9,0.332,93.1,inactive
HOXA4,3,0.481,91.4,1.25,73.5,inactive
RBM24,1,0.183,85.5,-0.352,105,inactive
RBM24,2,-0.489,72.2,-0.648,95.7,inactive
RBM24,3,1.24,106,1.12,88.7,inactive
PTX3,1,1.18,105,0.715,97.4,inactive
PTX3,2,0.462,91.1,0.633,86.1,inactive
PTX3,3,0.797,97.7,0.639,92.3,inactive
TFG,1,0.663,95.1,-0.0503,108,inactive
TFG,2,-0.399,74,-0.92,105,inactive
TFG,3,0.544,92.7,-0.552,120,inactive
EIF3F,1,-2.12,39.7,-2.21,79.2,inactive
EIF3F,2,-0.977,62.4,-1.42,101,inactive
EIF3F,3,-2.25,37.1,-2.26,75.2,inactive
NUP62,1,-1.28,56.4,-1.3,88.6,inactive
NUP62,2,-3.63,9.74,-7.98,89.1,inactive
NUP62,3,-2.66,29,-3.05,72.3,inactive
MRPL15,1,-0.226,77.4,-0.856,108,inactive
MRPL15,2,1.28,107,1.31,85,inactive
MRPL15,3,1.45,111,0.817,99.7,inactive
VIP,1,-0.783,66.3,-0.432,83,inactive
VIP,2,2.22,126,1.62,91.8,inactive
VIP,3,-0.0217,81.5,-0.0212,91.5,inactive
COP1P1,1,-0.578,70.4,-0.845,98.3,inactive
COP1P1,2,1.93,120,1.35,94.2,inactive
COP1P1,3,1.06,103,1.68,73.9,inactive
DCTPP1,1,0.854,98.9,0.808,89.3,inactive
DCTPP1,2,-1.01,61.8,-1.29,97,inactive
DCTPP1,3,-0.478,72.4,-0.824,100,inactive

10 successive records from above:
gene knocked down,reagent,"total luciferase, z-score","total luciferase, % of control","luciferase per cell, z-score","viable cells, % of control",Call
KALRN,1,0.441,90.7,0.298,93.7,inactive
KALRN,2,-0.693,68.1,-0.897,96.4,inactive
KALRN,3,-0.566,70.6,-0.804,97.5,inactive
DCAF4,1,0.189,85.7,0.405,86,inactive
DCAF4,2,0.276,87.4,0.364,88.7,inactive
DCAF4,3,-0.898,64,-0.486,81.3,inactive
H1-9P,1,0.319,88.2,0.309,90.9,inactive
H1-9P,2,2.13,124,1.77,87.1,inactive
H1-9P,3,-0.116,79.6,-0.0729,90.7,inactive
OR3A4P,1,2.65,135,1.92,90.7,inactive
